This is one part of the list.

Sequences of proteins named here, by UniProt entry; tags and fusion partners are left off.
UniProt Q0JBA9, entry or part of it: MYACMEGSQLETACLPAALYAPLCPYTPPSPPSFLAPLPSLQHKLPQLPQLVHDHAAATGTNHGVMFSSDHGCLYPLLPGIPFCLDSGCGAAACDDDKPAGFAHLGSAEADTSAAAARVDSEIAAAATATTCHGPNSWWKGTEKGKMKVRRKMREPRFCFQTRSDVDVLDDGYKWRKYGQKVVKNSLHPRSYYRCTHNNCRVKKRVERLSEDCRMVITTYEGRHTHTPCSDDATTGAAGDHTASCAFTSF

The target in this assay is OsWRKY34 (Oryza sativa, UniProt Q0JBA9 1-250). Briefly: protein-binding microarray (RPBM); PBS, 2% BSA, 51.3 ng/ul salmon testes DNA, 50 uM zinc acetate, 200 nM TF, 25 C, 1 h; high values mean tight binding. Conditions: protein: recombinant; tags: N-terminal polyhistidine and DsRed monomer fusion (pET32a); label: CyDye5-dUTP incorporated in the synthesized complementary strand; 3' TTTTT single-stranded linker to array surface; dsDNA, one strand shown. The procedure, abridged:
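Polyhistidine-tagged DsRed fusions of transcription factors, joined at the N-terminus, were expressed in E. coli BL21-CodonPlus and isolated on Ni–NTA. They were incubated at 200 nM for 1 h at 25 °C on a custom Agilent array, double-stranded and BSA-blocked, in PBS with 2% BSA, salmon testes DNA and 50 µM zinc acetate. The binding signal is per-feature fluorescence intensity (arbitrary units) read on an Axon 4000B scanner after washing.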
For “CACGCCCATCCGCATCACGCCGCGCCTCCTACACCGCGTCCGGAGTCACCTAGTGCAG”, the binding signal is 12200 fluorescence intensity (a.u.).

Turning to “CTTTTCACTTCATATTATAAAAGCTTTGACTTTTTTTTGTCGGAGTCACCTAGTGCAG”, the binding signal was 11600 fluorescence intensity (a.u.).

Consider “TATAGATAGTGGTTTGCTCTACTTTTAGGCTCCGTTCGGTCGGAGTCACCTAGTGCAG”, for which the binding signal is 9590 fluorescence intensity (a.u.).

For “CCGTTCTATCCATAGCGCATGCCTATTTGTATCTTCTCCACGGAGTCACCTAGTGCAG”, the binding signal was 9960 fluorescence intensity (a.u.).

“GACCTTCCTGCAGAAAAATTGGACATGCAGACATCTAATCCGGAGTCACCTAGTGCAG”: the binding signal is 8530 fluorescence intensity (a.u.).

For the sequence “TCTCTTTGGCTGATCTGTGACCGTGAGCTCTTCGTCTCCGCGGAGTCACCTAGTGCAG”, the binding signal was 10600 fluorescence intensity (a.u.).

For “CCGCGGGCTTGGCTTGGCTGGCACCCTCTCCTTCTCGTCTCGGAGTCACCTAGTGCAG”, the binding signal was 10300 fluorescence intensity (a.u.).

With “GCCAGCAGTGCATTATTCTGCCTATATATACGACCTTACCCGGAGTCACCTAGTGCAG”, the binding signal is 10800 fluorescence intensity (a.u.).

With “TTTTTTTTTCTTTTGGGGCGGAAGGAGTAGTATGGAGTTTCGGAGTCACCTAGTGCAG”, the binding signal is 12300 fluorescence intensity (a.u.).

For “AAATAGTAGATGTGACTTATAATCTTTTTTCTTACTTACACGGAGTCACCTAGTGCAG”, the binding signal is 8230 fluorescence intensity (a.u.).

Take “CTCACTCGTTTTCCGCATGCATGTTTATCAAACTACTAAACGGAGTCACCTAGTGCAG”: the binding signal was 8200 fluorescence intensity (a.u.).

“CTCCGGCCTCTACCGCATCTACCACCATCACTAGCTCTCGCGGAGTCACCTAGTGCAG”: the binding signal was 10100 fluorescence intensity (a.u.).

As to “TACGTCATCGCTTAATTTCCAAGGCTTCCGTTTTCTCCTACGGAGTCACCTAGTGCAG”, the binding signal was 10100 fluorescence intensity (a.u.).

On to “AGCATTTTGTACAAGTGTCATTTTCTCTCTGCCAATCCACCGGAGTCACCTAGTGCAG”, for which the binding signal was 9160 fluorescence intensity (a.u.).

Consider “CGAGGATGAAGACTACCTCGTCGTTGACTATGTGTGGTGTCGGAGTCACCTAGTGCAG”, for which the binding signal was 10400 fluorescence intensity (a.u.).

“CCTTATTGGAGAAATCTCCTCAACAAGCTCCGTCTCTGCCCGGAGTCACCTAGTGCAG”: the binding signal is 8410 fluorescence intensity (a.u.).

In the case of “TGGTGGTCCGTGTCCGTTTATTTACTGCGTTTACTTCAGTCGGAGTCACCTAGTGCAG”, the binding signal is 10200 fluorescence intensity (a.u.).

Take “TTATAGGCCGTGTTATCTTCGACTCTATATCATTTTCAACCGGAGTCACCTAGTGCAG”: the binding signal was 9310 fluorescence intensity (a.u.).

As for “CCGCATTCACGGCGGCCTTTTGATCCTGAACTGTCCATATCGGAGTCACCTAGTGCAG”, the binding signal is 12000 fluorescence intensity (a.u.).

With “GGGTGAACAAGCTGTTTTAGGTAATTTTCTGCTTTATCTTCGGAGTCACCTAGTGCAG”, the binding signal was 8630 fluorescence intensity (a.u.).

As to “GAATCTCCACCGACTCCGACACCAACACACCCTCGGGCCACGGAGTCACCTAGTGCAG”, the binding signal is 8910 fluorescence intensity (a.u.).

On to “GGCATTGTGGCATGTGTAGTGTGCTAACTGCCTAGCACACCGGAGTCACCTAGTGCAG”, for which the binding signal was 8050 fluorescence intensity (a.u.).

As for “CTCCTATTTCCCCTCGTGGTCTCGCCTCGTCTCTTCCTTCCGGAGTCACCTAGTGCAG”, the binding signal was 9400 fluorescence intensity (a.u.).

“GAATAGTTATCGAGTTGTTTTTTTTTGAGATCATATTTTTCGGAGTCACCTAGTGCAG”: the binding signal was 8750 fluorescence intensity (a.u.).

“TTCTTTTTTCCATTAGCATTCCAACTTTTCGAAAACCTTCCGGAGTCACCTAGTGCAG”: the binding signal was 9030 fluorescence intensity (a.u.).

For the sequence “GCGTGTGGTGGGGTGTGTGGTGGGGACGACGCAGGAAGCGCGGAGTCACCTAGTGCAG”, the binding signal was 12400 fluorescence intensity (a.u.).

For the sequence “TCATGTTTAATTCGTGACTTACATGTCCTTTATGGTTGATCGGAGTCACCTAGTGCAG”, the binding signal is 10200 fluorescence intensity (a.u.).

As to “CATTGCTACTTCCTTGCAGCGTGTGTGTCGGCTAGACCGTCGGAGTCACCTAGTGCAG”, the binding signal is 10300 fluorescence intensity (a.u.).

For the sequence “AATAACTTTTGCTTTAGGTGCATCTTACTGGTCAGATCCTCGGAGTCACCTAGTGCAG”, the binding signal is 8130 fluorescence intensity (a.u.).

Take “AAATGTTGAGGTCAAAGTTGTATAACTTTGACTATTTATACGGAGTCACCTAGTGCAG”: the binding signal was 9660 fluorescence intensity (a.u.).

For the sequence “CGTCATGTGGCCCGCCCAAAGTTGTGTCTGCTCCGTTCATCGGAGTCACCTAGTGCAG”, the binding signal is 8890 fluorescence intensity (a.u.).

For “ACACTTATGAACTCACACACGTTACACTACTCTCATAAGTCGGAGTCACCTAGTGCAG”, the binding signal is 11300 fluorescence intensity (a.u.).

In the case of “GGCCATTTTAGTCCGTACATTAAGTAATCTGTTGTAATTACGGAGTCACCTAGTGCAG”, the binding signal was 8860 fluorescence intensity (a.u.).

For the sequence “CTCAACTTTTAGCTTTTGGTTTCTAGTTCATTTTCTGAATCGGAGTCACCTAGTGCAG”, the binding signal was 8670 fluorescence intensity (a.u.).

Turning to “ACTCTTAGACTGTCAATTGGTCGACATCTACGCTTATCATCGGAGTCACCTAGTGCAG”, the binding signal was 8160 fluorescence intensity (a.u.).

In the case of “TGCTCTCTCTCGTGTGGTCTGGTCCGCGCGCTCGTGTATACGGAGTCACCTAGTGCAG”, the binding signal is 9150 fluorescence intensity (a.u.).

With “ATCCTTTTGTTACCTGCGATACCCTTTTTACAGTGCAGCCCGGAGTCACCTAGTGCAG”, the binding signal is 12100 fluorescence intensity (a.u.).

In the case of “GGATTGGGGTTGAACCAGCCTTGACCCTTATAAAGGGGTTCGGAGTCACCTAGTGCAG”, the binding signal is 9180 fluorescence intensity (a.u.).

For “ATGTTTTGCAATCCTCTGTTTTACAATTGTATTCCTGTCACGGAGTCACCTAGTGCAG”, the binding signal is 9320 fluorescence intensity (a.u.).

In the case of “GCACAAGGCAGATGGAGGTTGTACAGCTATTATTATTTCACGGAGTCACCTAGTGCAG”, the binding signal is 8380 fluorescence intensity (a.u.).

For “ATTATAAGTTGTTTCTTCTTAGGTTGTGTTTAGTTCCTTGCGGAGTCACCTAGTGCAG”, the binding signal was 9250 fluorescence intensity (a.u.).

Consider “GCGGCTGGGGTTGCGGTGCAATCTGGGGCGGGGATGCGAACGGAGTCACCTAGTGCAG”, for which the binding signal is 17100 fluorescence intensity (a.u.).

Source of the values: PMC7819943, “Rice protein-binding microarrays: a tool to detect cis-acting elements near promoter regions in rice”.
